Hit rate of the full screen: of about 78,000 compounds, about 1,800 (2.3%) were called active. The inconclusive results got no clear call from the source; some entries with a clear call stand among them for comparison. Rule as the data show it: active = inhibition above about 30%; inconclusive = mostly about 10% to 28%; inactive = weaker than that.
Target: Interleukin-1 receptor-like 1 (Homo sapiens) (UniProt Q01638)
Assay: blocks human ST2 binding to IL-33, primary screen, biochemical, AlphaLISA (AID 1259354)
Conditions: AlphaLISA ST2-Fc/biotin-IL-33 interaction, 1 h; at 17 µM, stronger effect = higher value

By UniProt entry, the sequences of proteins in these tests, tags left out. Where a name states a change or a piece, a line headed by the entry shows the natural chain unless it says otherwise.
UniProt Q01638: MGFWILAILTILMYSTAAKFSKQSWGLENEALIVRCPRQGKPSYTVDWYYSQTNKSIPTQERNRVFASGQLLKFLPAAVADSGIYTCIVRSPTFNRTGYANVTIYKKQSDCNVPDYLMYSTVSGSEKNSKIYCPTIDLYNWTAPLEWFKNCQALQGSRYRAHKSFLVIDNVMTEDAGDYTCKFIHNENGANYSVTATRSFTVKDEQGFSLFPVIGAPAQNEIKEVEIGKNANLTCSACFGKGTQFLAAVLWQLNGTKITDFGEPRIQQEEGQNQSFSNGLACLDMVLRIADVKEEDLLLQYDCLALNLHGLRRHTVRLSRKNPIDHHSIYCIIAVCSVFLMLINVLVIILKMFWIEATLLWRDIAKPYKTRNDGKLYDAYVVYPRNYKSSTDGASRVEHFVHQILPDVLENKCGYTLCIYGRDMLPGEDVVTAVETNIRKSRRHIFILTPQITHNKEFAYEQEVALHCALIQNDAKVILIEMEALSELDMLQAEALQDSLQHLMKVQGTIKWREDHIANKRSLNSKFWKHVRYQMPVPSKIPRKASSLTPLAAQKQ

SMILES	inhibition
CCCCN(C)CCNS(=O)(=O)c1cc(Br)cc2c1N(C(=O)C1CC1)CC2	inactive
CCN(c1cccc(C)c1)c1ncnc2c1cnn2-c1ccccc1	inconclusive: 11%
Cc1ccc(C(C)(C)C)c(OCCN2CCOCC2)c1	inactive
O=C1c2ccc(F)cc2C(=O)N1C1CCCCCCC1	inconclusive: 17%
CNC(=O)c1ccc(C2CCCN2c2nc(CCN)nc3ccccc23)s1 (stereo not given)	inconclusive: 17%
O=C(NCCCc1ccccc1)c1ccc([N+](=O)[O-])cc1Cl	inconclusive: 14%
O=C(Nc1ccc(N2CCCC2)c(Cl)c1)c1cccs1	inconclusive: 25%
COCc1nc2cc(NC(=O)Cc3ccccc3)cc(C(=O)NCC3OCCc4ccccc43)c2n1C (stereo not given)	inactive
Cc1c(C)n(C(=O)COc2cccc3cccnc23)c2ccccc12	inconclusive: 21%
NCc1ccccc1/C=C/c1ccccc1	inconclusive: 11%
O=C(C1CCN(Cc2nc(Cc3cccc(C(F)(F)F)c3)no2)CC1)N1CCCC1	inactive
O[C@@H]1C[C@@H](c2nc(-c3ccc(F)cc3)no2)N(C2CCCCC2)C1	inconclusive: 10%
CC(C)C(C(=O)N1CCCCCC1)N1C(=O)c2ccccc2C1=O (stereo not given)	inconclusive: 10%
CSc1ncc(CN2CCCC(CCC(=O)N3CCN(C)CC3)C2)cn1 (stereo not given)	inconclusive: 10%
Clc1ccc(-c2nc(-c3cccnc3)no2)c(Cl)c1	inconclusive: 16%
CN(CC(=O)N1CCN(c2ccc(Cl)cc2)CC1)S(=O)(=O)c1ccc2c(c1)CCC(=O)N2	inactive
CC1CC(C)CN(CCCNS(=O)(=O)c2cccc3nonc23)C1 (stereo not given)	inactive
C#CCOc1c(Br)cc(/C=C2/NC(=O)NC2=O)cc1OCC	inconclusive: 12%
CCCCNc1nnnc2c1sc1nc(N3CCOCC3)c3c(c12)CC(C)(C)OC3	inconclusive: 16%
CCOC(=O)N1CCN(C(=O)c2ccc(N3CCC(NCCc4cccc(Cl)c4)CC3)cc2)CC1	inactive

SMILES	inhibition
Cc1cccc(OCC(=O)Nc2ccc(N3CCCC3)cc2)c1C	active: 66%
O=C(Cc1ccc([N+](=O)[O-])cc1)Nc1cccc(I)c1	inconclusive: 13%
Cc1noc(C)c1CCN1CCC(=O)N(CC2CC2)C(C(C)C)C1 (stereo not given)	inconclusive: 15%
COCc1nc(NC(C)c2c(C)n[nH]c2C)c2cnn(C)c2n1 (stereo not given)	inconclusive: 14%
CCNC(=O)O[C@@H]1CO[C@H]2[C@@H]1OC[C@@H]2NC(=S)Nc1ccc(Cl)cc1	inconclusive: 27%
O=C(COc1ccccc1)Nc1c(C(=O)Nc2ccccc2F)oc2ccccc12	inconclusive: 10%
CC1CCCC(NC(=O)C2(C)CCC(=O)N2C(C)c2ccccc2)C1C (stereo not given)	inconclusive: 16%
C=CCN(C(=O)c1cc(C)nc2cc(C)ccc12)C1CCS(=O)(=O)C1 (stereo not given)	inconclusive: 15%
NC1CC(=O)N(Cc2ccccc2Cl)C1 (stereo not given)	inactive
Cn1c(SCC(=O)NCc2ccccc2)nc2c([nH]c3ccccc32)c1=O	inconclusive: 11%
CCOC(=O)c1c(NC(=O)c2ccccc2)sc2c1CCN(CC)C2	inconclusive: 14%
CN[C@@H](C)C(=O)N(Cc1cccc(C)c1)Cc1ccccc1OC	inconclusive: 10%
CNC(=O)c1ccc(CN2CCCC(Nc3ccc(F)cc3)C2)o1 (stereo not given)	active: 36%
Cc1cccc(Cl)c1S(=O)(=O)N1CC(c2ccccn2)C1	inconclusive: 13%
O=C(NCc1ccc2c(c1)OCO2)C1CCC(=O)N(CCN2CCOCC2)C1 (stereo not given)	inactive
Cc1oc2cc(O)ccc2c(=O)c1-c1ccc(F)cc1	inactive
N#Cc1c(NC(=O)Cn2cc(Br)c([N+](=O)[O-])n2)sc2c1CCC2	inactive
O=C(Nc1cccc(Br)c1)C1CCN(C(=O)c2ccccc2Cl)CC1	inconclusive: 17%
Cc1cc(C)n(-c2cccc(CNC(C)c3cnn(-c4cccc(F)c4)c3C)c2)n1 (stereo not given)	inconclusive: 15%
COc1cc(OC)c(NC(=O)c2coc(=O)c3ccccc23)cc1Cl	inactive

Of the compounds above, 5 have a thiophene ring, fused or not:
SMILES	inhibition
CNC(=O)c1ccc(C2CCCN2c2nc(CCN)nc3ccccc23)s1 (stereo not given)	inconclusive: 17%
O=C(Nc1ccc(N2CCCC2)c(Cl)c1)c1cccs1	inconclusive: 25%
CCCCNc1nnnc2c1sc1nc(N3CCOCC3)c3c(c12)CC(C)(C)OC3	inconclusive: 16%
CCOC(=O)c1c(NC(=O)c2ccccc2)sc2c1CCN(CC)C2	inconclusive: 14%
N#Cc1c(NC(=O)Cn2cc(Br)c([N+](=O)[O-])n2)sc2c1CCC2	inactive

Reprinted at random: 2 compounds from above, in no set order.
SMILES	inhibition
O=C(COc1ccccc1)Nc1c(C(=O)Nc2ccccc2F)oc2ccccc12	inconclusive: 10%
CC1CCCC(NC(=O)C2(C)CCC(=O)N2C(C)c2ccccc2)C1C (stereo not given)	inconclusive: 16%

Going on with the list:

SMILES	inhibition
Cc1cccc(OCC(=O)Nc2c(C)cccc2C)c1	inactive
COc1ccc(Cl)cc1NC(=O)N1CCC(n2cc(C3CC3)nn2)CC1	inactive
COc1ccc(NC(NC(=O)c2cccs2)C(Cl)(Cl)Cl)cc1 (stereo not given)	inconclusive: 13%
COc1ccc(C(=O)ON=C2C=CC(=O)C=C2)cc1	inconclusive: 15%
CCOc1ccc(NC(=O)COc2nsnc2N2CCCCC2)cc1	inconclusive: 15%
Cc1ccc(NC(=O)COc2c(C)ccc(C)c2C)c([N+](=O)[O-])c1	active: 33%
Nc1nc2n(n1)C(c1ccc(F)cc1)CC(c1ccc(F)cc1)N2 (stereo not given)	inconclusive: 11%
COc1cc(OC)c(NC(=O)N2CCN(Cc3nc4cccnc4n3-c3ccccc3)CC2)cc1Cl	inconclusive: 16%
C=CCNC(=O)N[C@H]1CCN(C(=O)c2cccn2C)[C@@H]1C(=O)N[C@@H](C(=O)OC)C(C)C	inactive
CC1CCN(c2nc3c(c(=O)[nH]c(=O)n3C)n2CCSc2nnnn2-c2ccccc2)CC1	inactive
O=c1[nH]cnc2c1Cc1c(nc[nH]c1=O)O2	inconclusive: 10%
CC1CCCCN1CCNS(=O)(=O)c1cc(Br)cc2c1N(C(=O)C1CC1)CC2 (stereo not given)	inconclusive: 14%
O=C1c2cccc([N+](=O)[O-])c2C(=O)N1C1CCCCCCC1	active: 36%
Cc1ccc(C)c(S(=O)(=O)N=C(c2ccc(Cl)cc2)N(C)C)c1	active: 78%
Cc1ccc2c(c1)NC(=O)C2CC(=O)NCc1cn[nH]c1-c1cccs1 (stereo not given)	inconclusive: 15%
CC(C)CCN1C(=O)N(CCN(C)C)C(=O)C12CCN(Cc1nc3ccccc3n1C)CC2	inconclusive: 17%
C=CCSC1=C(C#N)C(c2ccc(C)cc2)C(C(=O)OC)C(=O)N1 (stereo not given)	inconclusive: 13%
O=C(C1CC1)N1CCc2cc(Br)cc(S(=O)(=O)Nc3ccccc3Cl)c21	inconclusive: 11%
COc1ccc(/C=C(/C#N)c2nc(-c3cccs3)cs2)cc1OC	active: 49%
COc1cc(/C=C/c2nc3ccccc3c(=O)n2-c2cccc([N+](=O)[O-])c2)ccc1O	inactive
